Data from PubChem BioAssay AID2551 (National Center for Advancing Translational Sciences (NCATS), 2010).
In all, about 310,000 compounds went through this assay and about 17,000 (5.5%) were called active. Inconclusive means that the source gave no clear call. Such entries were picked first, then a sample of the others. The call rests on the fitted dose curve; in most records, active means well fitted inhibition curve with a large enough effect; inconclusive means small, poorly fitted or top-dose-only effect, or effect the other way; inactive means no such curve, though single readings can be large or run the other way. Potencies of inconclusive entries are doubtful fits and often do not repeat.

The chains behind the UniProt entries cited, without tags or fusion partners. Where a name states a change or a piece, a line headed by the entry shows the natural chain unless it says otherwise.
UniProt P51450: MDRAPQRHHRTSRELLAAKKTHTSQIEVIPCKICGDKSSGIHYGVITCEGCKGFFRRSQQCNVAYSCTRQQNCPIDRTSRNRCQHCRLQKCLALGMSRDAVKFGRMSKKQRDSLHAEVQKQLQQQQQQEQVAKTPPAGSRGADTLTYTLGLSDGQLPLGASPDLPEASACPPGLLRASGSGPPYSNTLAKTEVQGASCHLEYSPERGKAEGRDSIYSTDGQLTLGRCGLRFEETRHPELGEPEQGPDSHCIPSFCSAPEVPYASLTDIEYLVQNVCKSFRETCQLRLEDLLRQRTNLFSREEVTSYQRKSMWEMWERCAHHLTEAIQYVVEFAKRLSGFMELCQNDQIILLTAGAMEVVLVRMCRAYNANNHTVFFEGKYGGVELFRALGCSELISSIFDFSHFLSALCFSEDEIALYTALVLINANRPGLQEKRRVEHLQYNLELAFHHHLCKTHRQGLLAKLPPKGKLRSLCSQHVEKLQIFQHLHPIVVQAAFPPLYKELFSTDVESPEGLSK

Target: Nuclear receptor ROR-gamma (Mus musculus) (UniProt P51450)
Test: qHTS for inhibitors of ROR gamma transcriptional activity; further: nearly all actives have a fitted effect of over 60% in size
Details: Drosophila S2 Gal4-RORgamma UAS-luciferase reporter, 20 h; series mostly up to 53.6 µM
In short: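 ROR gamma transcriptional activity was tracked as Gal4-UAS luciferase output in stably transfected Drosophila Schneider cells, with compound added 1 hr before 700 uM copper sulfate induction and a 20 hr ambient-temperature incubation.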
Potency means the concentration at half of the fitted maximal effect.

Compound | Potency
NNC(=O)c1sc(-c2ccccc2)cc1N | inconclusive: 35.5 µM [inhibitor, single point]
COCc1cc(C)nc(N/N=C/c2ccc(-c3ccc(Cl)cc3[N+](=O)[O-])o2)c1C#N | inconclusive: 14.1 µM [activator, partial curve]
CCOC(=O)c1ccc(-c2ccc(/C=N/NC(=O)CN(c3ccccc3Cl)S(C)(=O)=O)o2)cc1 | inconclusive: 2.51 µM [activator, full curve, poor fit]
Cc1ccc(N2C(=O)CS/C2=N\C(=S)Nc2ccccc2)cc1 | inconclusive: 2.82 µM [inhibitor, single point]
COc1c(OC)c(O)c2c(=O)c(O)c(-c3ccccc3)oc2c1OC | inconclusive: 25.1 µM [inhibitor, single point]
CCOC(=O)c1sc2ccc(S(=O)(=O)N3CCOCC3)cc2c1N | inconclusive: 20 µM [activator, single point]
C/C(=N\NC(=S)NCc1ccccc1)c1ccc(C(C)(C)C)cc1 | active: 1 µM
O=C(NC(Cc1c[nH]c2ccccc12)C(=O)Nc1ccc(F)c([N+](=O)[O-])c1)c1cccs1 (centres undefined) | inconclusive: 35.5 µM [activator, single point]
S=C(NCc1ccco1)N1CCN(c2cccc(Cl)c2)CC1 | inconclusive: 17.8 µM [activator, single point]
CCCSc1nc(O)c(C2OC(=O)c3c2ccc(OC)c3OC)c(=O)n1C (centres undefined) | inconclusive: 17.8 µM [inhibitor, single point]
COc1cccc(-c2c(C(=O)N/N=C/c3cccs3)nnn2-c2nonc2N)c1 | active: 7.08 µM
COC(=O)CNC(=O)/C=C/c1cc(Br)ccc1OC | inactive
O=C(c1ccc(NC(=O)C2(c3ccccc3)CCCC2)cc1)N1CCOCC1 | inconclusive: 31.6 µM [activator, single point]
C[C@](N)(C(=O)O)c1ccc(-c2nn[nH]n2)cc1 | inactive
Cc1ccc(NC(=O)Cn2nnc3ccccc3c2=O)cc1 | inconclusive: 22.4 µM [activator, single point]
O=C(NCCCSc1ccccc1)c1cccnc1 | inconclusive: 8.91 µM [inhibitor, partial curve]
O=C(Nc1nnc(Cc2ccccc2)s1)c1ccco1 | inconclusive: 0.447 µM [activator, full curve, poor fit]
Oc1ccc(C=NC2CCCCC2)cc1 | inactive
COc1ccc(OCC(=O)N/N=C2\CCCc3ccccc32)cc1 | inconclusive: 35.5 µM [activator, single point]
Cc1cc(-c2ccccc2)c(C#N)c(=S)[nH]1 | inconclusive: 5.01 µM [inhibitor, single point]
Clc1ccc(SCCCCN2CCNCC2)cc1 | inactive
O=C(/C=C/c1ccccc1)Nc1ccc2c(c1)C(=O)NC2=O | inconclusive: 35.5 µM [inhibitor, single point]
Cc1ccc(-n2nnnc2SCc2ccccn2)cc1C | inconclusive: 22.4 µM [activator, single point]
Cn1ncc2c(Nc3ccc(Cl)c(Cl)c3)ncnc21 | inconclusive: 11.2 µM [activator, single point]
CCOC(=O)c1cccc(OCC(O)CNCCOc2ccccc2F)c1 (centres undefined) | inactive

In a second layout: results already given.
Compound	Potency
COc1ccc(OCC(=O)N/N=C2\CCCc3ccccc32)cc1	inconclusive: 35.5 µM [activator, single point]
Cc1cc(-c2ccccc2)c(C#N)c(=S)[nH]1	inconclusive: 5.01 µM [inhibitor, single point]
Clc1ccc(SCCCCN2CCNCC2)cc1	inactive

Next structures

Compound | Potency
S=C1NCN(C2CCCCC2)CN1c1ccccc1 | active: 22.4 µM
OC1(c2ccc(OC(F)F)cc2)CSC(=Nc2cccnc2)N1Cc1ccco1 (centres undefined) | inconclusive: 35.5 µM [inhibitor, single point]
COc1cccc2c1C(=O)c1c(O)c3c(c(O)c1C2=O)C[C@](O)(C(C)=O)C[C@H]3O[C@@H]1C[C@H](N)[C@H](O)[C@H](C)O1 | active: 5.62 µM
Cc1cccc(NC(=O)Nc2cccc(Oc3c(F)c(F)c(F)c(F)c3F)c2)c1 | inconclusive: 35.5 µM [inhibitor, single point]
COC(=O)c1ccc2nc(NC(=O)C(C)C)sc2c1 | inconclusive: 8.91 µM [inhibitor, partial curve]
CC(C)(C)NC(=O)CN(Cc1ccc(F)cc1)C(=O)Cn1nnc(-c2ccc(F)cc2)n1 | inactive
Cc1cc(Oc2ccccc2)nc(-c2ccccc2)n1 | inconclusive: 12.6 µM [activator, partial curve]
c1ccc(-c2ccccc2OCCCCn2ccnc2)cc1 | inconclusive: 12.6 µM [inhibitor, partial curve, poor fit]
COc1cc(/C=N/n2c(-c3ccccc3)n[nH]c2=S)cc(OC)c1O | inactive
O=C(Nc1cccc(C(F)(F)F)c1)C1CCN(S(=O)(=O)c2ccc(N3CCCC3=O)cc2)CC1 | inconclusive: 3.16 µM [inhibitor, single point]
COc1ccc2[nH]cc(CCNc3ncncc3-c3ccoc3)c2c1 | inactive
CCc1ccc(NC(=O)c2cc(-c3ccco3)on2)cc1 | inconclusive: 35.5 µM [activator, single point]
Cc1ccc(S(=O)(=O)Nc2ccc3c(c2)OCCO3)cc1C | inconclusive: 22.4 µM [activator, single point]
CCOC(=O)c1ccc(N2C(=O)CC(N3CCCC(C)C3)C2=O)cc1 (centres undefined) | inconclusive: 35.5 µM [inhibitor, single point]
O=C(CC1CCCCC1)NCc1ccc(Cl)cc1 | inactive
COc1ccc(C(=S)N2CCN(S(=O)(=O)c3ccccc3)CC2)cc1 | inconclusive: 5.62 µM [activator, full curve]
COc1ccc(COC(=O)C2=C(C)NC(=O)NC2c2cc(Br)c(O)c(OC)c2)cc1 (centres undefined) | inconclusive: 8.91 µM [activator, partial curve]
O=C(N/N=C(\c1ccccc1)c1ccccn1)c1ccccc1Cl | active: 0.708 µM
COc1cc(=O)[nH]c(SCc2c(F)c(F)c(F)c(F)c2F)n1 | inactive
CCCc1[nH]nc2c1C(c1ccc(OC)cc1OC)C(C#N)=C(N)O2 (centres undefined) | inactive
COc1ccc2[nH]cc(/C=N/NS(=O)(=O)c3ccc(C)cc3)c2c1 | inconclusive: 3.16 µM [activator, single point]
Cc1ccc(C)c(NS(=O)(=O)c2ccc(OCC(=O)NCc3ccccn3)cc2)c1 | inconclusive: 7.08 µM [activator, partial curve]
Cc1nnc(SCc2nnc(-c3ccccc3Br)o2)s1 | inactive
Cc1cccc(COCC(Cc2ccccc2)N2CCN(C(=O)c3cc(Cl)cc(Cl)c3)CCC2=O)c1 (centres undefined) | inconclusive: 12.6 µM [activator, single point]
O=C(COc1ccc(Cl)cc1)NNC(=O)c1ccccn1 | active: 10 µM

3 of these compounds in another layout.
Compound	Potency
C/C(=N\NC(=S)NCc1ccccc1)c1ccc(C(C)(C)C)cc1	active: 1 µM
Clc1ccc(SCCCCN2CCNCC2)cc1	inactive
CCOC(=O)c1cccc(OCC(O)CNCCOc2ccccc2F)c1 (centres undefined)	inactive

Following part

Compound | Potency
O=C1CSC(=Nc2ccc(F)cc2)N1 | inactive
NC(=O)c1cccnc1Nc1cccc(F)c1 | inconclusive: 20 µM [activator, partial curve]
COc1ccc(NC(=O)CSc2nc3ccccc3c(=O)n2C)cc1 | inconclusive: 22.4 µM [activator, single point]
Cc1cc(OCc2cc(C(=O)N(C)Cc3nonc3C)no2)cc(C)c1Cl | inactive
Nc1nc2nccc(-c3ccccn3)n2n1 | inconclusive: 35.5 µM [inhibitor, single point]
NS(=O)(=O)c1ccc(CCn2c(=S)[nH]c3ccc(F)cc3c2=O)cc1 | inconclusive: 22.4 µM [inhibitor, single point]
Cc1ccc(-c2nc(P(=O)(c3ccccc3)c3ccccc3)c(N3CCOCC3)o2)cc1 | active: 3.55 µM
COc1ccc(C(c2nnnn2CC2CCCO2)N2CCN(c3ccc(F)cc3)CC2)cc1 (centres undefined) | inconclusive: 10 µM [inhibitor, single point]
CC(C)(C)c1cn(-c2ccccc2)c(=S)[nH]1 | active: 7.08 µM
O=C(NC(=S)Nc1cc(Cl)ccc1O)c1cccc(Br)c1 | active: 1.26 µM
O=C(O)c1ccc(C(=O)Nc2cccc(NC(=O)C3CCCO3)c2)cc1 (centres undefined) | inconclusive: 0.447 µM [inhibitor, single point]
CCn1ncc(NC(=S)Nc2ccc(OC)c(OC)c2)c1C(N)=O | inactive
C[C@]12C=CC(=O)C=C1CC[C@@H]1[C@@H]2C(=O)C[C@@]2(C)[C@H]1CC[C@]2(O)C(=O)CO | inconclusive: 3.55 µM [activator, single point]
C/C=C1\COC(C(=O)NCc2ccncc2)(C(F)(F)F)C=C1C=C1CCCCC1 (centres undefined) | active: 15.8 µM
Cn1c(Cc2ccccc2)nnc1SCC(=O)c1ccc(Br)s1 | inconclusive: 15.8 µM [inhibitor, single point]
COc1ccc(N2C(=O)CNC2=S)cc1 | inactive
O=C(NC(=S)Nc1ncccn1)c1ccccc1Br | inconclusive: 35.5 µM [inhibitor, single point]
CCc1ccc(NC(=O)c2ccc(F)c(S(=O)(=O)NCC3COc4ccccc4O3)c2)cc1 (centres undefined) | inconclusive: 17.8 µM [activator, partial curve]
FC(F)(F)c1cc(CO[C@H]2CCCN[C@H]2c2ccccc2)cc(C(F)(F)F)c1 | active: 25.1 µM
COc1ccccc1NC(=O)Cc1csc(NC(=S)Nc2ccc(C)cc2)n1 | active: 0.891 µM
CCOc1ccc(C(=O)CSCCC(=O)O)cc1 | active: 0.282 µM
Cc1cccc(OCC(=O)NC(=S)Nc2ccc(S(=O)(=O)NC3CCCCC3)cc2)c1 | inactive
CC1(C)C(C=C(Cl)Cl)C1C(=O)N(Cc1ccc(Cl)cc1)C1CCS(=O)(=O)C1 (centres undefined) | inconclusive: 12.6 µM [activator, partial curve]
Cc1ccc(Nc2nc3ccccc3c(=O)[nH]2)cc1C | inconclusive: 35.5 µM [activator, single point]
